From publication doi:10.1101/2025.10.10.681713

B1: LIN52 (protein, UniProt Q8CD94 1-112)
chain: MASPTDGTDLEASLLSFEKLDRASPDLWPEQLPGVAEFAASFKSPITSSPPKWMAEIERDDIDMLKELGSLTTANLMEKVRGLQNLAYQLGLDESREMTRGKFLNILEKPKK
B2: p130 (protein, UniProt Q64700 1-1135)
chain: MASGGNQSPPPPPAAAASSEEEEEDGDAADRAQPAGSPSHQIQQRFEELCSRLNMDEAARAEAWSSYRSMSESYTLEGNDLHWLACALYVACRKSVPTVSKGTAEGNYVSLTRILRCSEQSLIEFFNKMKKWEDMANLPPHFRERTERLERNFTVSAVIFKKYEPIFQDIFKYPQEEQPRQQRGRKQRRQPCTTSEIFHFCWVLFIYAKGNFPMISDDLVNSYHLLLCALDLVYGNALQCSNRKELVNPNFKGLSEDCHPKDSKASSDPPCVIEKLCSLHDGLVLEAKGIKEHFWKPYIRKLFEKKLLKGKEENLTGFLEPGNFGESFKAVNKAYEEYVLAAGNLDERVFLGEDAEEEVGTLSRCLSAASGTESAERTQMRDILQQHLDKSKALRVCTPLTGVRYVQENSPCVTPVSTAAHSLSRLHTMLSGLRNAPSEKLERILRSCSRDPTQAIADRLKEMYEIYSQHFQPDENFSNCAKEIANKHFRFAEMLYYKVLESVIEQEQKRLGDMDLSGVLEHDAFHRSLLACCLEVVAFSHKPPGNFPFIAEIFDVPHYHFYKVIEVFIRAEDGLCREVVKHLNQIEEQILDHLAWKTKSPLWDRIRDNENRVPTCEEVMPPQNLERTDEIYIAGSPLTPRRVGEVRADAGGLGRSITSPTTLYDRYSSPTVSTTRRRLFENDSPSEGSTSGRIPPQPLVNAVPVQNVPGETVSVTPVPGQTLVTMATATVTANNGQTVTIPVQGIANENGGITFFPVQVNVGGQAQAVAGSIQPLSAQALAGSLSSQQVTGTTLQVPGPVAIQQISPGGQQQNPGQPLTSSSIRPRKTSSLALFFRKVYYLAGVRLRDLCIKLDISDELRKKIWTCFEFSIIQCTELMMDRHLDQLLMCAIYVMAKVTKEDRSFQNIMRCYRTQPQARSQVYRSVLIKGKRRNSGSSESRSHQNSPTELNTDRASRDSSPVMRSNSTLPVPQPSSAPPTPTRLTGASSDVEEEERGDLIQFYNNIYRKQIQAFAMKYSQANAQTDTPPLSPYPFVRTGSPRRVQLSQSHPIYISPHNNEAMPSPREKIFYYFSNSPSKRLREINSMIRTGETPTKKRGILLDDGSESPAKRICPENHSALLRRLQDVANDRGSQ

Biological target: T1, LIN9 (mouse (endogenous in urothelial organoids)) (UniProt Q8C735)
T1 sequence: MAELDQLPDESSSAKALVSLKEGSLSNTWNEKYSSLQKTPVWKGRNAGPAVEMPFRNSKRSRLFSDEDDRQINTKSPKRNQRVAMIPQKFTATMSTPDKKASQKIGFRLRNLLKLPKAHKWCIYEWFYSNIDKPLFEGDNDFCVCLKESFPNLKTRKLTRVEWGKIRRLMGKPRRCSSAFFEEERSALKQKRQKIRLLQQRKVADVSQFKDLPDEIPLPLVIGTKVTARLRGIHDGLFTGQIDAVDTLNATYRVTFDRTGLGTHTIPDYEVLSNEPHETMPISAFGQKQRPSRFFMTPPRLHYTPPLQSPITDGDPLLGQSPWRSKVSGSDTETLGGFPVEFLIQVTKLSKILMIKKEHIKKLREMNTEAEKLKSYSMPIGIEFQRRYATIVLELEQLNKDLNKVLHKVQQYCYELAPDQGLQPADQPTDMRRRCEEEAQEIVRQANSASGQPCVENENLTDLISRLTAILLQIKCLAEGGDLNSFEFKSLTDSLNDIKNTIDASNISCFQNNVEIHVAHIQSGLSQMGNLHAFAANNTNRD
Test: affinity purification with mass spectrometry

Row | Binder | binding
1 | B1 | binds
2 | B2 | binds

These are yes or no findings as the source states them, for the method shown. In cells and extracts the contact can be indirect. Here binding means that the protein was enriched with, or labelled near, the bait; the list need not be complete.
